Tested on: C57BL/6J male mice
Assay: Long term memory for object recognition
Format: in vivo
Conditions: 3, 10, 30 mg/kg subcutaneous; object recognition memory task
Description: C57BL/6J male mice were handled 1-2 min for 5 days and were habituated to the experimental apparatus 5 min a day for 4 consecutive days in the absence of objects. […] 24-h later mice were tested for memory retention (5 min) using the object recognition memory task (ORM), in which a familiar object was replaced with a novel one. All training and testing trials were videotaped and analyzed by individuals blind to the treatment condition and the genotype of subjects. A mouse was scored as exploring an object when its head was oriented toward the object within a distance of 1 cm or when the nose was touching the object. The relative exploration time was recorded and expressed by a discrimination index [DI=(tnovel−tfamiliar)/(tnovel+tfamiliar)×100].

Cc1ccc(C(=O)NCCCCCC(=O)Nc2ccccc2N)cc1 [RGFP 109]
dose dependence of the effect on long-term memory: Dose dependent effects
